This is one part of the list. Most entries show no effect beyond the scatter of the controls.
compound: CN[C@@H]1C[C@H]2O[C@@](C)([C@@H]1OC)n1c3ccccc3c3c4c(c5c6ccccc6n2c5c31)C(=O)NC4 [staurosporine]; assay: log2 fold change of tryptic peptide abundance, ligand vs vehicle (limited proteolysis) (log2 ratio); higher = more trypsin-susceptible (destabilized); conditions: ligand concentration: 20 uM; sample: mouse liver crude lysate; replicate design: treated separately

Amino acid sequences for entries named in this document (tags omitted). A change or cut given only in a name is not applied to a line headed by its entry.
UniProt Q8JZU6: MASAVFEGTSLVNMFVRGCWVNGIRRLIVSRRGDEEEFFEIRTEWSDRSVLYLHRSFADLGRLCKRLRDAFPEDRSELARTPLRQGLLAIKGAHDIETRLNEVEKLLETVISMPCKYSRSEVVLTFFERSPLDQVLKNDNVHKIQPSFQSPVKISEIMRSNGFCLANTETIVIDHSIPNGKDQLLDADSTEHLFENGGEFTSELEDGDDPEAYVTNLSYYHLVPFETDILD
UniProt Q8CCM6: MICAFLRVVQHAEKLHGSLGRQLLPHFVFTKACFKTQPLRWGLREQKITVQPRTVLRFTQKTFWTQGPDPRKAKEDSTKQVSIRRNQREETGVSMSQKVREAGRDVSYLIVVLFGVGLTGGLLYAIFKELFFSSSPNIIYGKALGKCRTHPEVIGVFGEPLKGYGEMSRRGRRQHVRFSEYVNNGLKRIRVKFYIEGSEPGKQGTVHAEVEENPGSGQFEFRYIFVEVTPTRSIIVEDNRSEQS
UniProt Q8JZL3: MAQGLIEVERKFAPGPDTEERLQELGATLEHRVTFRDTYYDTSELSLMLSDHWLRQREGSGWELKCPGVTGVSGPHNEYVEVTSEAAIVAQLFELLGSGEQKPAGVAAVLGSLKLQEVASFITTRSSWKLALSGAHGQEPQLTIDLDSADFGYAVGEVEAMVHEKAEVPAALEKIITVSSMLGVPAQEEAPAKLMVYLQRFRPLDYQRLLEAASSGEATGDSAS
UniProt Q8CG14: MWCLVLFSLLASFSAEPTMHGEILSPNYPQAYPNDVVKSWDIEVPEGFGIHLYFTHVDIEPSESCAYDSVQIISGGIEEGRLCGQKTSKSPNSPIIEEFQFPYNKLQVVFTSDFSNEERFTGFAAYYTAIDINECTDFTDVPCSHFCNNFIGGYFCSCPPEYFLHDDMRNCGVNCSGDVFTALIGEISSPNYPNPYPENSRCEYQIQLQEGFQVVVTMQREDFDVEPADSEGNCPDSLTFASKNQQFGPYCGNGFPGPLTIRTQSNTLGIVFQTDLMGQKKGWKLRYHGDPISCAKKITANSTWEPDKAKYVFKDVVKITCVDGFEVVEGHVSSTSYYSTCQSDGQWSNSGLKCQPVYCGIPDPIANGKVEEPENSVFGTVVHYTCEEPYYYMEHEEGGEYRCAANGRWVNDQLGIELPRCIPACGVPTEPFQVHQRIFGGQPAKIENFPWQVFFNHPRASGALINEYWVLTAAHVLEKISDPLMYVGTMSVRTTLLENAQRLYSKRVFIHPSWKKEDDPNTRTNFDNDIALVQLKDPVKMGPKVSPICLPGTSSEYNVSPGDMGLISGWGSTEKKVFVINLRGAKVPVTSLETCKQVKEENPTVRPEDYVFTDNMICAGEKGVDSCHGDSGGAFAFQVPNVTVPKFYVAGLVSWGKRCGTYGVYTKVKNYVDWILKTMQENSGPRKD
UniProt Q8CJ96: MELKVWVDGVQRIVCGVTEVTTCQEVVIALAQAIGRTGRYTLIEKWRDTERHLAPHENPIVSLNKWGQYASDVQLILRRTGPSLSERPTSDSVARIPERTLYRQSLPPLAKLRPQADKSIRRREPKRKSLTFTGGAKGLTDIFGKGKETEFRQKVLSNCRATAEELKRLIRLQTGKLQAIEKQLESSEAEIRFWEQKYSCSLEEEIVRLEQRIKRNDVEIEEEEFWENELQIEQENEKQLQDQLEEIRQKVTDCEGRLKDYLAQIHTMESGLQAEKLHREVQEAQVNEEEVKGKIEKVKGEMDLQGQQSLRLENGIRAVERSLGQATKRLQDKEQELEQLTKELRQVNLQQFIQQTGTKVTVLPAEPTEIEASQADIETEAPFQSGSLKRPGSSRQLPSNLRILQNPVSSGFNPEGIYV
UniProt Q8JZS6: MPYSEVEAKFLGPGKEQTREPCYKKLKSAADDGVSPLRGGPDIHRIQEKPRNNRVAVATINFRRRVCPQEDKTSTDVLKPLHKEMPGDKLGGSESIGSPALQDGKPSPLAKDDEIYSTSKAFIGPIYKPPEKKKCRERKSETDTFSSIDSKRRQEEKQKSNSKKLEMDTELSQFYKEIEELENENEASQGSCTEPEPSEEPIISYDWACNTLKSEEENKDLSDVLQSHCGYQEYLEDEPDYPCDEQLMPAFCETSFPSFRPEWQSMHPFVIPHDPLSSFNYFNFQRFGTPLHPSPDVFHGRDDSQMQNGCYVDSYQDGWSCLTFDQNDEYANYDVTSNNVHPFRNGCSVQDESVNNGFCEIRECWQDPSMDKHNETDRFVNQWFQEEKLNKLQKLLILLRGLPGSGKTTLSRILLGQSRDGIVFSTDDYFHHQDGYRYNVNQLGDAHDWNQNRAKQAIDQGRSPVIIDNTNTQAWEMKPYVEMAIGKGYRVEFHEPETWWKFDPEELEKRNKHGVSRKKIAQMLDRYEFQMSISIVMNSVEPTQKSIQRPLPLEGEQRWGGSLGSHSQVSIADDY
UniProt Q8CEC0: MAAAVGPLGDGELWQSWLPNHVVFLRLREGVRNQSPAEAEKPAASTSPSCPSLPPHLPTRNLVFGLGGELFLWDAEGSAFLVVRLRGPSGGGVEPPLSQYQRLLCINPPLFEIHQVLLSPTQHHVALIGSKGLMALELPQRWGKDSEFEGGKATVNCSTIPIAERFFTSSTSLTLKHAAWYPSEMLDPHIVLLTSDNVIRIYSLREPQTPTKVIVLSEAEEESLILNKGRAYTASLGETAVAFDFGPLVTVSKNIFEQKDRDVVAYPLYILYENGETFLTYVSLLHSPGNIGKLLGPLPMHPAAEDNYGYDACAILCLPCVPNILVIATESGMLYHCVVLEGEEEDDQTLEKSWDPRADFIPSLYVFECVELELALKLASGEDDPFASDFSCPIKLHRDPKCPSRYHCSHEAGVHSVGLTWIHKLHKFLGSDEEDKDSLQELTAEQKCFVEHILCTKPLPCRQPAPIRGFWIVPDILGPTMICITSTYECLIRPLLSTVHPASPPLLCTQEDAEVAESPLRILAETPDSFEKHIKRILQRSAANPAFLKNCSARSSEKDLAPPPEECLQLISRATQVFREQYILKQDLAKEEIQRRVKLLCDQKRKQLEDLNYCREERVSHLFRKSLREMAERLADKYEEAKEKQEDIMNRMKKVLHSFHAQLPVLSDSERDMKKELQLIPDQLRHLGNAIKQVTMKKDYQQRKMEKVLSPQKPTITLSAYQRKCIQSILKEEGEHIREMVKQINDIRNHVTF
UniProt Q8CFE3, whole entry: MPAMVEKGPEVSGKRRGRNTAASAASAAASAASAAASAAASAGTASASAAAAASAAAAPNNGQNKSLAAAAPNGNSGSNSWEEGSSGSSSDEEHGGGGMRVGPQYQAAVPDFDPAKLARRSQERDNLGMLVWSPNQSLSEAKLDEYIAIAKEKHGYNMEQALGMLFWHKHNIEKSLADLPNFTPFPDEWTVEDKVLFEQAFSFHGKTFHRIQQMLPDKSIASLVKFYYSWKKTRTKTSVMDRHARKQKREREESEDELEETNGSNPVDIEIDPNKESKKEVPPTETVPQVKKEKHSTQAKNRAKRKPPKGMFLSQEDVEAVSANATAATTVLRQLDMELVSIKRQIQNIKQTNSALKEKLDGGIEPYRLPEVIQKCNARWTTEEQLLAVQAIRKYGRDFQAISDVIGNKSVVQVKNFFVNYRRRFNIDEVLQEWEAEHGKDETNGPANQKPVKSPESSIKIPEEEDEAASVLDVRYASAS
UniProt Q8K004: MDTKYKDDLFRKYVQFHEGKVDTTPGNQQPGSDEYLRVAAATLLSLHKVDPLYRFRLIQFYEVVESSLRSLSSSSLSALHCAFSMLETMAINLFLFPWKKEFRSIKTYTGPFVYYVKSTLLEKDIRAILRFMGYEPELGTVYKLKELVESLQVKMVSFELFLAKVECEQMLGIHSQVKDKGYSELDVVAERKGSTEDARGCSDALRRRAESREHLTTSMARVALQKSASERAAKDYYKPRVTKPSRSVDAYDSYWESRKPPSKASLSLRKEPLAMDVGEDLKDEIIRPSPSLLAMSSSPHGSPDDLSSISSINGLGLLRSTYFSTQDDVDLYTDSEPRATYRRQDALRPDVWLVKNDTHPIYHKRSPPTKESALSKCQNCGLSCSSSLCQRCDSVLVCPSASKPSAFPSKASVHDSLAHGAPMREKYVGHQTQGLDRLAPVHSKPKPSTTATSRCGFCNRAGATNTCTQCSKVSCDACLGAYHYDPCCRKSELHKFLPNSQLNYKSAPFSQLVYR
UniProt Q8CGC6: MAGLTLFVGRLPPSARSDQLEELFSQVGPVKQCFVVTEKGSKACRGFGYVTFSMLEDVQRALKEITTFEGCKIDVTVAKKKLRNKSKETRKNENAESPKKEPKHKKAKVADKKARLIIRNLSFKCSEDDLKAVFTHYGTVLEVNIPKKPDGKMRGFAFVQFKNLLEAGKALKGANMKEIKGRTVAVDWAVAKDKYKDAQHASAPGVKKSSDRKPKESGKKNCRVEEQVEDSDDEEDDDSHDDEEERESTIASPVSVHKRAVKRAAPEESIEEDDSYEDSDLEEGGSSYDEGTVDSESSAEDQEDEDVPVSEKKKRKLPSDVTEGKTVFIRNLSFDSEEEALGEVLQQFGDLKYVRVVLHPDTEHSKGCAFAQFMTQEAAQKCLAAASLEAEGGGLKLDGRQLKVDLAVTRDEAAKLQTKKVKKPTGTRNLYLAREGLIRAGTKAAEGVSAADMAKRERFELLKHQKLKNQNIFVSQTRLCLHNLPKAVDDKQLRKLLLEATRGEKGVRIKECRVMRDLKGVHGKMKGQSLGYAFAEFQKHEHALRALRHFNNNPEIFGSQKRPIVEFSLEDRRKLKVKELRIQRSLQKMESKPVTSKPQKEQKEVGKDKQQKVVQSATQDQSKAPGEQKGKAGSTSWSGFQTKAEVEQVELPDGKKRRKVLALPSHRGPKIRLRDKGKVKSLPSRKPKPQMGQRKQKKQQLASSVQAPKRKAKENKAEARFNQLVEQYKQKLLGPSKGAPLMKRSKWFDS
UniProt Q8K0H5, whole entry: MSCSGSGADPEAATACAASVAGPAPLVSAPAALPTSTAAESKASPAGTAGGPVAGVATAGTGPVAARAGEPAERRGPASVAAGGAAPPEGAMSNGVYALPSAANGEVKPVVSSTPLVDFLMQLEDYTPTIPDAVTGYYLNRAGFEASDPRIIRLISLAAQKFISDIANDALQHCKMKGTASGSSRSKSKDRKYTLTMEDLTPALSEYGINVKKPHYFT
UniProt Q8CFJ9: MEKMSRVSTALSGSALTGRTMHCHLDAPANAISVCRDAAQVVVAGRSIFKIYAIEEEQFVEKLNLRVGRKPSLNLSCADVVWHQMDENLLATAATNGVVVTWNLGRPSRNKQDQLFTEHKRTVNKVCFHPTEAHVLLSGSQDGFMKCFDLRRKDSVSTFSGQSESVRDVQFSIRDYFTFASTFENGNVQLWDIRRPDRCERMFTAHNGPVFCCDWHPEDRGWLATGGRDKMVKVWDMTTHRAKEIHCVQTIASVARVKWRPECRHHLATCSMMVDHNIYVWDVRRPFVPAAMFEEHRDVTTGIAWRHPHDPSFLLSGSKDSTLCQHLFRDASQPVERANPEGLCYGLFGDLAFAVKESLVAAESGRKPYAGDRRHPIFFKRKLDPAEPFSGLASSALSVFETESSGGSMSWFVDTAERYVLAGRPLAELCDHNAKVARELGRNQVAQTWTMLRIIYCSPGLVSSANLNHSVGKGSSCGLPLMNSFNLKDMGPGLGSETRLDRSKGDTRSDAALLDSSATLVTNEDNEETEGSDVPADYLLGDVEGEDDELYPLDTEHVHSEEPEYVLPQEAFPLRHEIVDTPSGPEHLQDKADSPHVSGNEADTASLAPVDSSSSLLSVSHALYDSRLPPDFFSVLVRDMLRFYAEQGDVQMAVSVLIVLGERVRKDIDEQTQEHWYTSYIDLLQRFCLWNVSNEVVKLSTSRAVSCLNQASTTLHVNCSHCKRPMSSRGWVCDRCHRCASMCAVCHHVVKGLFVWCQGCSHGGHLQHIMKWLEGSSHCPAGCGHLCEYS
UniProt Q8CEE7: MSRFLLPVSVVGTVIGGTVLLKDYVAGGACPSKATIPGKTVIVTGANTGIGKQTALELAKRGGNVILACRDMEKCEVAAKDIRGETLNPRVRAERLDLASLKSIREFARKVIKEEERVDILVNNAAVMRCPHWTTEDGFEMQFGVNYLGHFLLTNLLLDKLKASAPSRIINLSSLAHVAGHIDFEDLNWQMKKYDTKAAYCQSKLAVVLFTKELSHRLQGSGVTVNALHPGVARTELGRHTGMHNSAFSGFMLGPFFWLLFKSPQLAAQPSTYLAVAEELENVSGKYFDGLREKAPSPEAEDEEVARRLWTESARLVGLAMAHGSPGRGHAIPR
UniProt Q8CGF5: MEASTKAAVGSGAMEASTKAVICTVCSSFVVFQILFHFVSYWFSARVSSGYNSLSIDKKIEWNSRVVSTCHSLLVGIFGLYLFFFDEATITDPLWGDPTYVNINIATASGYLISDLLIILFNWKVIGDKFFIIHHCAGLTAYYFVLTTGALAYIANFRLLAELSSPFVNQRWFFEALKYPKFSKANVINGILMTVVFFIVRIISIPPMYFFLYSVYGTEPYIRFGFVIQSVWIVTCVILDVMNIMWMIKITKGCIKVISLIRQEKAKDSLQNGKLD

Target	log2 fold change
UniProt Q8JZU6 (peptide sequence: LRDAFPEDR, peptide start residue: 67)	-0.617
UniProt Q8K0S2 (peptide sequence: NAHEPQVTGGNR, peptide start residue: 279)	0.332
UniProt Q8CCM6 (peptide sequence: NQREETGVSMSQK, peptide start residue: 86)	-0.0556
UniProt Q8JZL3 (peptide sequence: AQGLIEVERK, peptide start residue: 2)	0.192
UniProt Q8K039 (peptide sequence: CSGLTASSKK, peptide start residue: 109)	-0.904
UniProt Q8CE50 (peptide sequence: MECFNADLK, peptide start residue: 379)	0.224
UniProt Q8CG14 (peptide sequence: VFVINLR, peptide start residue: 577)	-0.254
UniProt Q8CHY6 (peptide sequence: ASVPSMQIQGQR, peptide start residue: 269)	0.193
UniProt Q8CBC4 (peptide sequence: GEVAQMDSR, peptide start residue: 171)	0.289
UniProt Q8JZK9 (peptide sequence: ASSELFNQK, peptide start residue: 322)	-0.262
UniProt Q8CG76 (peptide sequence: EHHFEAIALVEK, peptide start residue: 275)	-0.268
UniProt Q8CJ96 (peptide sequence: SLTFTGGAK, peptide start residue: 129)	-0.174
UniProt Q8CGC7 (peptide sequence: VIDPVAPR, peptide start residue: 499)	0.145
UniProt Q8CJG0 (peptide sequence: SGNIPAGTTVDTK, peptide start residue: 728)	-0.258
UniProt Q8CGF1 (peptide sequence: NIVSWVEK, peptide start residue: 221)	-0.304
UniProt Q8HWE5 (peptide sequence: LTRTHTLR, peptide start residue: 47)	0.158

Target	log2 fold change
UniProt Q8CHC4 (peptide sequence: SMWSVNGDSISK, peptide start residue: 427)	0.412
UniProt Q8CIH5 (peptide sequence: RRQEELNNQLFLYDTHQNLR, peptide start residue: 1205)	-0.553
UniProt Q8CFC7 (peptide sequence: DKEEAEAIK, peptide start residue: 242)	-0.72
UniProt Q8JZS6 (peptide sequence: VEFHEPETWWK, peptide start residue: 491)	-0.439
UniProt Q8CEC0 (peptide sequence: KELQLIPDQLR, peptide start residue: 675)	-0.192
UniProt Q8CCG1 (peptide sequence: LQRHSTVCGK, peptide start residue: 394)	-0.124
UniProt Q8CFE3 (peptide sequence: IQQMLPDK, peptide start residue: 211)	0.157
UniProt Q8CHK4 (peptide sequence: HPPGNEIYR, peptide start residue: 287)	-0.527
UniProt Q8CGA3 (peptide sequence: EQAALQEGHK, peptide start residue: 284)	-0.285
UniProt Q8K004 (peptide sequence: ASVHDSLAHGAPMR, peptide start residue: 411)	-0.0832
UniProt Q8CGC6 (peptide sequence: KVLALPSHR, peptide start residue: 659)	-0.753
UniProt Q8K0H5 (peptide sequence: FISDIANDALQHCK, peptide start residue: 162)	0.129
UniProt Q8CFJ9 (peptide sequence: HPIFFKR, peptide start residue: 375)	-0.239
UniProt Q8CEE7 (peptide sequence: EKAPSPEAEDEEVARR, peptide start residue: 293)	-0.182
UniProt Q8CGF5 (peptide sequence: AKDSLQNGKLD, peptide start residue: 266)	0.276

Some of the entries so far, as a markdown table.

| Target | log2 fold change |
| --- | --- |
| UniProt Q8CBC4 (peptide sequence: GEVAQMDSR, peptide start residue: 171) | 0.289 |
| UniProt Q8JZK9 (peptide sequence: ASSELFNQK, peptide start residue: 322) | -0.262 |
